Reference: the supplement of paper PMC6411743
± gives the standard deviation of the averaged measurements. The entries are a selection whose mix differs from that of the whole data set.

Amino acid sequences for entries named in this document (tags omitted). A change or cut given only in a name is not applied to a line headed by its entry.
UniProt Q8NC96: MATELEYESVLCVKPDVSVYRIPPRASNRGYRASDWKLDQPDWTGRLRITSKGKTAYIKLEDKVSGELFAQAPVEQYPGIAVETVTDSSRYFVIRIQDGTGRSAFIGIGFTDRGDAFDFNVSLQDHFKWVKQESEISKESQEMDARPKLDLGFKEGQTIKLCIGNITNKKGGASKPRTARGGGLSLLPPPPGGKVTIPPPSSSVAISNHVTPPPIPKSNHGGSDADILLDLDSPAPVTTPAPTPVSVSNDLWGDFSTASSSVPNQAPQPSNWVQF
UniProt Q8NFH3: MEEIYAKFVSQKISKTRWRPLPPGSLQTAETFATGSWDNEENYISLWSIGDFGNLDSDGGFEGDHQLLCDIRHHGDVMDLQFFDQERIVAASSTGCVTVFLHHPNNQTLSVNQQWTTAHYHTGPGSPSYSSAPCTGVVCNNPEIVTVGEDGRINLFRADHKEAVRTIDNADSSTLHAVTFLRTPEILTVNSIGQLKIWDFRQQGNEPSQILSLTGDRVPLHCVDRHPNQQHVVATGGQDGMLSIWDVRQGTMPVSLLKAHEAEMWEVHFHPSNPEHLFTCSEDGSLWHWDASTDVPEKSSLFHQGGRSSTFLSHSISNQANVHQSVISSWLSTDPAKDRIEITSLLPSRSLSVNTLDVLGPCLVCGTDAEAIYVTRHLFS
UniProt Q8TAP9: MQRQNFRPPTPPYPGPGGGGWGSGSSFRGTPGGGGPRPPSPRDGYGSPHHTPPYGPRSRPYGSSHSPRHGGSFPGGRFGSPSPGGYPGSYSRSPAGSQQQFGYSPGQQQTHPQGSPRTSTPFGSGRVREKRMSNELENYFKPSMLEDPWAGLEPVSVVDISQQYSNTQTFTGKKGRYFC
UniProt Q8WUQ7: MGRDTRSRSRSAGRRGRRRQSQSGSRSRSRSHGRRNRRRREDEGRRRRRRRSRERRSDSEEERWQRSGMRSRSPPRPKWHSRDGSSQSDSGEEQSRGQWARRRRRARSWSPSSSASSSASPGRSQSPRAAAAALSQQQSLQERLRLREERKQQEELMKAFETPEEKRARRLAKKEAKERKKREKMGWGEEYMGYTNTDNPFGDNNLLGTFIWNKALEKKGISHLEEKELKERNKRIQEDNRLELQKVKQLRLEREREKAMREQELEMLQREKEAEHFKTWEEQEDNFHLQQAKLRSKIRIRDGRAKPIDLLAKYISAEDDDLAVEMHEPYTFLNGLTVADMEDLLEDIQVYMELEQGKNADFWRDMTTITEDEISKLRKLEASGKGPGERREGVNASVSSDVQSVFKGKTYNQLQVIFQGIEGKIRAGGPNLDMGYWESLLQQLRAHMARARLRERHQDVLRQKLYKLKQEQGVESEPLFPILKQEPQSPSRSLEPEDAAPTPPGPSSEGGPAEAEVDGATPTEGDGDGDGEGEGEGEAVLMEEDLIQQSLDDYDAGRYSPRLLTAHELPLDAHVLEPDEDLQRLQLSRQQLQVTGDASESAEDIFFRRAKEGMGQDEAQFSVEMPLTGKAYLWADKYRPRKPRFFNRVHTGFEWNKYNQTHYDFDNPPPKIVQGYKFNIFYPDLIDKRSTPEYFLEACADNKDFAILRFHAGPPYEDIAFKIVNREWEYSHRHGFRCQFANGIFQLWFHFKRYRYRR
UniProt Q92769, whole entry: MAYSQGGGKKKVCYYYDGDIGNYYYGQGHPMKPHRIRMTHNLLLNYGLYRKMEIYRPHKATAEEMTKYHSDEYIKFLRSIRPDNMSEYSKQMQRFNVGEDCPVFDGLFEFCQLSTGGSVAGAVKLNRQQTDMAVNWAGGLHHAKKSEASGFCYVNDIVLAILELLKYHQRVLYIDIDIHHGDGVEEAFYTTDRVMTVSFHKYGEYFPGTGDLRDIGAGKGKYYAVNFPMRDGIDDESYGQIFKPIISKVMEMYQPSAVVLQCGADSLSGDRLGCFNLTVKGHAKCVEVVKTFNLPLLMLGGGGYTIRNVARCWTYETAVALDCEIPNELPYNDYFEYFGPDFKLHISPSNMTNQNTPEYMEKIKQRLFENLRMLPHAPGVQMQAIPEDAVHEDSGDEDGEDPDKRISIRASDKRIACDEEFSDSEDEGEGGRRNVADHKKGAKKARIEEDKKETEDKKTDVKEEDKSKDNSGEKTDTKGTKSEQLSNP
UniProt Q92466: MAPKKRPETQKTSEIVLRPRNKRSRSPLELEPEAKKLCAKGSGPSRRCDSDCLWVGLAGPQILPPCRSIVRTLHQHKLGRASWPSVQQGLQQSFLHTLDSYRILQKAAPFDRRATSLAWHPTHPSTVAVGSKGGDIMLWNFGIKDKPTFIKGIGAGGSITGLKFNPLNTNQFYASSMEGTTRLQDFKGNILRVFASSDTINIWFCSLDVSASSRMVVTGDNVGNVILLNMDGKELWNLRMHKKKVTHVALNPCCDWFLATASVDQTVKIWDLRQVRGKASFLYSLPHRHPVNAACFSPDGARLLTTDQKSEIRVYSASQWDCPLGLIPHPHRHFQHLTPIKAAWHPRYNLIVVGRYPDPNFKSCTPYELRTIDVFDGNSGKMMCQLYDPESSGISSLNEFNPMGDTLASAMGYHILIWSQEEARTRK
UniProt Q8NFG4: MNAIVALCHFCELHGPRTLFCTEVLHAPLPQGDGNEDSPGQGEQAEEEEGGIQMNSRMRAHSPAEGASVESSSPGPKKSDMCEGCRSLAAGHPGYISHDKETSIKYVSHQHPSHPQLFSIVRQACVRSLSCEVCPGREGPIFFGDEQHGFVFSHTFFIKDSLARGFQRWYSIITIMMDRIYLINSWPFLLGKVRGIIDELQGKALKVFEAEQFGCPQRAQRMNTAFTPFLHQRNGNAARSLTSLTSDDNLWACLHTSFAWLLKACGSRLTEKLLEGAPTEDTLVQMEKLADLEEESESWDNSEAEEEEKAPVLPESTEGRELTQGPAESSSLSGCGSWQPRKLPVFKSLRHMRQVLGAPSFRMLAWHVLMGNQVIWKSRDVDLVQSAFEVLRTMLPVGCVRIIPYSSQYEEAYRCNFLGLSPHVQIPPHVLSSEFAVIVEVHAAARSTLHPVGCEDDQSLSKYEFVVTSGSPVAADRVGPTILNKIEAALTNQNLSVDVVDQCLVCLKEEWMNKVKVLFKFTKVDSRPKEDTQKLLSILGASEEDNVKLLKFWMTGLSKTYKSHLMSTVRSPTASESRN
UniProt Q8WYN0: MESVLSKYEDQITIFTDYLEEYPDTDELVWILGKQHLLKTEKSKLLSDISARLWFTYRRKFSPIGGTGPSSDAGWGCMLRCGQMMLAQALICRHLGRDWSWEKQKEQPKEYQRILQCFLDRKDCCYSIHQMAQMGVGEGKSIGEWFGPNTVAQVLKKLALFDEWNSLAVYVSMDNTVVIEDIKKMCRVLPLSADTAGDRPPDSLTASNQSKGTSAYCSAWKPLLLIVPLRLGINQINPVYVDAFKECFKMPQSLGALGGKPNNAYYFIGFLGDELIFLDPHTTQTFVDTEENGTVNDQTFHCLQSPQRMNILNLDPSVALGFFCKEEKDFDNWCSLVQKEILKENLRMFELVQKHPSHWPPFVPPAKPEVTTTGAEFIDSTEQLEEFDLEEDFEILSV
UniProt Q8WY54: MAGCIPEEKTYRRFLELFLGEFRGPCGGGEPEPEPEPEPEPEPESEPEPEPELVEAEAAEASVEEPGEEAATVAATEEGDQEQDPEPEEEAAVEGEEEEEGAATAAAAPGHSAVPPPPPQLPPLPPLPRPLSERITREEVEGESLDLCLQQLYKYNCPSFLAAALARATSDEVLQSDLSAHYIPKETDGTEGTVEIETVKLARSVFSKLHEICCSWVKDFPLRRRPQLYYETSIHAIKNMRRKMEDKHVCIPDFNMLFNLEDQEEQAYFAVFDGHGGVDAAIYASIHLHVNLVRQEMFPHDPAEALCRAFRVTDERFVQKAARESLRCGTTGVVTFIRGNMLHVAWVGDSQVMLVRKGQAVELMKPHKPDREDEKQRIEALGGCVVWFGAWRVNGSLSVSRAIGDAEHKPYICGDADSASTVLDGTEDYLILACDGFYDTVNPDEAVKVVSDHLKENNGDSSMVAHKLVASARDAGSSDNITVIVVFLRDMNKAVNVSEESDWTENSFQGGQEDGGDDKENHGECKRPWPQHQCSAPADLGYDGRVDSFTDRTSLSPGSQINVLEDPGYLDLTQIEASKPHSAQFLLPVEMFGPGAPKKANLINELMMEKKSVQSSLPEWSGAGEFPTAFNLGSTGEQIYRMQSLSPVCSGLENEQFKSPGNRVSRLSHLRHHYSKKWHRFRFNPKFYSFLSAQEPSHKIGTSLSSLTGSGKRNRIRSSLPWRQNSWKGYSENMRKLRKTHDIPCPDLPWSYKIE
UniProt Q8TBC4: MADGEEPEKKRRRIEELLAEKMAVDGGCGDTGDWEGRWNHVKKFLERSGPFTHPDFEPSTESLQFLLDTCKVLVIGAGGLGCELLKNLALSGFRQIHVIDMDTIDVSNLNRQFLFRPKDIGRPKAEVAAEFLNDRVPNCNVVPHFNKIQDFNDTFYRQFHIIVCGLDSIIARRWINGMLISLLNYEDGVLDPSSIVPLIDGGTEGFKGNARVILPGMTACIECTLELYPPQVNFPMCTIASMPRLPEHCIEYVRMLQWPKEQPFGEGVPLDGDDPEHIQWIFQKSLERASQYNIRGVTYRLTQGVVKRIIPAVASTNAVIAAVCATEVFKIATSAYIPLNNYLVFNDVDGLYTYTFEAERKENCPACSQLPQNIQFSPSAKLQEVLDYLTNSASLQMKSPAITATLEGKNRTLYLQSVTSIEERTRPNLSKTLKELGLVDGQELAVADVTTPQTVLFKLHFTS
UniProt Q8WUX9: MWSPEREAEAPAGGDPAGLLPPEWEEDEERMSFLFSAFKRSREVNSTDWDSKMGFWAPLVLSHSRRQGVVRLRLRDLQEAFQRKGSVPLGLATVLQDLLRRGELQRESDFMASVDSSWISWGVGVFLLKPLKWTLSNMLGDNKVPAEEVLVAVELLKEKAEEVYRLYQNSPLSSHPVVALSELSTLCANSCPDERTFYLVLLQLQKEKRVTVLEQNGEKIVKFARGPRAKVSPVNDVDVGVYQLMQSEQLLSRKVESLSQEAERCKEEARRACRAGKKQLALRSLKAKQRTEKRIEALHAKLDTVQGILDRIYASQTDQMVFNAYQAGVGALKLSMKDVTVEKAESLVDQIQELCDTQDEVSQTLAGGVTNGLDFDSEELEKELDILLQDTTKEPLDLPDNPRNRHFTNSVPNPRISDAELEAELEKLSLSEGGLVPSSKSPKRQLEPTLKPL
UniProt Q8TAV0: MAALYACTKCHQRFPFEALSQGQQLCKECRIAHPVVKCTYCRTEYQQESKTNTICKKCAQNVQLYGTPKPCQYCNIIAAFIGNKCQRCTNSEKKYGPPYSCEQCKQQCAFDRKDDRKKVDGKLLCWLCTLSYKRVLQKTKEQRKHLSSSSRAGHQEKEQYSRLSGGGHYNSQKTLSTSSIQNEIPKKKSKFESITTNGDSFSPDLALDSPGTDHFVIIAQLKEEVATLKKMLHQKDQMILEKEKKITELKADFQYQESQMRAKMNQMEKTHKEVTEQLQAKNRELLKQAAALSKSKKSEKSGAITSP
UniProt Q8TDZ2: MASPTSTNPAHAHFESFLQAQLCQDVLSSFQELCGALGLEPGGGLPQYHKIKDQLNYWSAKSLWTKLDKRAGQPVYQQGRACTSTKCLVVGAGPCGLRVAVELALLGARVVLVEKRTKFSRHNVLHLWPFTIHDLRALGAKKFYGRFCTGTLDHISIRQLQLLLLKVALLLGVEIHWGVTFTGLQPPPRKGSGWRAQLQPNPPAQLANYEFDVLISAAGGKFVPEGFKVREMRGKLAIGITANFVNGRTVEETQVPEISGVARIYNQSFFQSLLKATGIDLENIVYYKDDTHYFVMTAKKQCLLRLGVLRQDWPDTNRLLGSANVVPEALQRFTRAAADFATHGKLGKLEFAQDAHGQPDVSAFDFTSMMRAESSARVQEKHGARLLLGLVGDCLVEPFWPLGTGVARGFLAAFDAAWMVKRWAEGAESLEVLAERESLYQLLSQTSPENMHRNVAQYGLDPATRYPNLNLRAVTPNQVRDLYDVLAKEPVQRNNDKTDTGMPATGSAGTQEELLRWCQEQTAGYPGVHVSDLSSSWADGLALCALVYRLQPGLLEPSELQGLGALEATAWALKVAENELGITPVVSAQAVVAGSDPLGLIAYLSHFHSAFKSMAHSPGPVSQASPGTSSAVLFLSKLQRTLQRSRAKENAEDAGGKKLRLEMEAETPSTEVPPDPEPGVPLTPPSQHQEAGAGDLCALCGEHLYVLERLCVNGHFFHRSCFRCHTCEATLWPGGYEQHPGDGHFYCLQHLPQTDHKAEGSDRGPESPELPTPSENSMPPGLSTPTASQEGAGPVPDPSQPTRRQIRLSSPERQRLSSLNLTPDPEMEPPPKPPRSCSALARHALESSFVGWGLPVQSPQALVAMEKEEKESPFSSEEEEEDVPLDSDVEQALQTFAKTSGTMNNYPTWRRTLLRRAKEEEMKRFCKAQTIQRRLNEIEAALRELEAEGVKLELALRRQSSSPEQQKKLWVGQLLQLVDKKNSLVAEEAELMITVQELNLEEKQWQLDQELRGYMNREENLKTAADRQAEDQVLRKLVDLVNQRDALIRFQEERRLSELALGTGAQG

Compound: Nc1ncnc2c1ncn2[C@@H]1O[C@H](COP(=O)(O)OP(=O)(O)NP(=O)(O)O)[C@@H](O)[C@H]1O [adenylyl imidodiphosphate]
Assay: NP40-soluble protein abundance relative to vehicle (solubility fold change) (ratio); higher = more soluble protein in presence of AMP-PNP
In short: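 Data come from three independent experiments in which Dounce-homogenised Jurkat crude lysate was treated at eight concentrations from 0.1 to 10 mM. Treatment ran 10 min at room temperature and then 3 min at 37 °C, after which 0.8% NP40 and benzonase were added for 60 min at 4 °C before ultracentrifugation. The supernatant underwent TMT labelling and LC-MS/MS, and vsn-normalised intensities were expressed as fold change against the detergent-processed vehicle in each replicate.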

Target	NP40-soluble protein abundance (concentration: 1mM)	NP40-soluble protein abundance (concentration: 2mM)	NP40-soluble protein abundance (concentration: 4mM)	NP40-soluble protein abundance (concentration: 6mM)	NP40-soluble protein abundance (concentration: 8mM)	NP40-soluble protein abundance (concentration: 10mM)
RAB8B (UniProt Q92930)	1.01 ± 0.028	0.973 ± 0.044	0.979 ± 0.047	0.96 ± 0.021	0.957 ± 0.031	0.957 ± 0.045
SPRYD4 (UniProt Q8WW59)	0.979 ± 0.025	0.957 ± 0.033	0.978 ± 0.027	0.986 ± 0.027	1.03 ± 0.029	0.986 ± 0.051
DDX1 (UniProt Q92499)	0.959 ± 0.012	0.91 ± 0.11	0.96 ± 0.014	0.987 ± 0.017	1.004 ± 0.0053	0.982 ± 0.037
UniProt Q8TDR0 and related entries	1.03 ± 0.03	1.02 ± 0.03	1.02 ± 0.014	1.03 ± 0.021	1.04 ± 0.042	1.006 ± 0.006
UniProt Q92608 and related entries	0.986 ± 0.033	0.942 ± 0.066	1.02 ± 0.046	1.06 ± 0.033	1.09 ± 0.037	1.08 ± 0.084
UniProt Q8NDX1 and related entries	0.983 ± 0.03	1.04 ± 0.056	0.998 ± 0.032	1 ± 0.028	0.985 ± 0.056	1.03 ± 0.067
UniProt Q8WWC4	1.02 ± 0.048	0.94 ± 0.011	0.996 ± 0.049	0.95 ± 0.049	1 ± 0.038	0.946 ± 0.056
UniProt Q8NC60	0.954 ± 0.035	0.998 ± 0.0068	0.962 ± 0.04	0.965 ± 0.06	0.957 ± 0.075	0.965 ± 0.1
TFB1M (UniProt Q8WVM0)	0.953 ± 0.041	1.01 ± 0.052	0.979 ± 0.042	1.03 ± 0.021	1.06 ± 0.019	1.04 ± 0.061
UniProt Q8TCT9 and related entries	0.959 ± 0.039	0.971 ± 0.05	0.961 ± 0.04	0.961 ± 0.048	0.937 ± 0.044	0.959 ± 0.088
TMEM131 (UniProt Q92545)	0.967 ± 0.013	0.991 ± 0.023	0.979 ± 0.027	0.992 ± 0.029	0.971 ± 0.012	1 ± 0.032
RDH11 (UniProt Q8TC12)	0.945 ± 0.046	0.859 ± 0.081	0.926 ± 0.028	0.953 ± 0.073	0.968 ± 0.064	0.919 ± 0.061
UniProt Q8TA86 and related entries	0.985 ± 0.026	1.03 ± 0.089	0.976 ± 0.062	0.969 ± 0.052	1.02 ± 0.019	0.986 ± 0.064
PXDN (UniProt Q92626)	0.964 ± 0.043	0.977 ± 0.021	0.995 ± 0.034	0.978 ± 0.026	0.969 ± 0.024	1.02 ± 0.024
UniProt Q8WVM7 and related entries	0.98 ± 0.022	0.997 ± 0.029	1.02 ± 0.047	0.992 ± 0.034	1.05 ± 0.058	0.968 ± 0.042
NECAP1 (UniProt Q8NC96)	1.03 ± 0.044	1.05 ± 0.028	1.06 ± 0.045	1.02 ± 0.036	1.08 ± 0.017	1.05 ± 0.012
UniProt Q8TAA9 and related entries	1.02 ± 0.025	1.03 ± 0.064	1.02 ± 0.028	1.01 ± 0.019	1.02 ± 0.02	1.02 ± 0.054
NUP43 (UniProt Q8NFH3)	1.02 ± 0.026	1 ± 0.076	1.05 ± 0.032	1.01 ± 0.015	1.03 ± 0.038	0.999 ± 0.024
OSTF1 (UniProt Q92882)	1.02 ± 0.028	1.07 ± 0.039	1.02 ± 0.05	0.952 ± 0.019	0.979 ± 0.042	0.949 ± 0.08
UniProt Q8TAP9	1.01 ± 0.032	1.03 ± 0.032	0.999 ± 0.028	0.997 ± 0.037	0.958 ± 0.046	1.01 ± 0.04

Target	NP40-soluble protein abundance (concentration: 1mM)	NP40-soluble protein abundance (concentration: 2mM)	NP40-soluble protein abundance (concentration: 4mM)	NP40-soluble protein abundance (concentration: 6mM)	NP40-soluble protein abundance (concentration: 8mM)	NP40-soluble protein abundance (concentration: 10mM)
UniProt Q8WUQ7 and related entries	1.05 ± 0.027	1.05 ± 0.027	1.09 ± 0.03	1.06 ± 0.023	1.06 ± 0.031	1.11 ± 0.063
LPCAT1 (UniProt Q8NF37)	0.945 ± 0.025	0.902 ± 0.09	0.932 ± 0.043	0.93 ± 0.039	0.896 ± 0.041	0.875 ± 0.034
MZB1 (UniProt Q8WU39)	1.05 ± 0.053	1.04 ± 0.036	1 ± 0.092	0.955 ± 0.051	1.03 ± 0.076	0.988 ± 0.076
HDAC2 (UniProt Q92769)	1.02 ± 0.034	0.976 ± 0.03	0.979 ± 0.035	0.993 ± 0.062	1.04 ± 0.05	0.968 ± 0.071
UniProt Q92567 and related entries	1.01 ± 0.0066	1.01 ± 0.026	0.9905 ± 0.0034	1.018 ± 0.0052	1.004 ± 0.0016	1.017 ± 0.0094
DDB2 (UniProt Q92466)	0.938 ± 0.04	0.881 ± 0.089	0.934 ± 0.023	0.9661 ± 0.003	0.97 ± 0.028	0.922 ± 0.06
UniProt Q92845 and related entries	0.979 ± 0.013	0.992 ± 0.027	0.992 ± 0.015	0.975 ± 0.032	0.968 ± 0.025	0.971 ± 0.03
UniProt Q8NFG4 and related entries	1.03 ± 0.021	1.02 ± 0.024	1.001 ± 0.0095	1 ± 0.023	1.01 ± 0.03	1.02 ± 0.043
UniProt Q8NFF5 and related entries	1.01 ± 0.011	0.997 ± 0.031	0.982 ± 0.013	0.9712 ± 0.0049	0.971 ± 0.017	0.959 ± 0.022
UniProt Q8TCZ2 and related entries	0.955 ± 0.057	0.952 ± 0.018	0.921 ± 0.024	0.945 ± 0.043	0.943 ± 0.035	0.951 ± 0.045
UniProt Q8TDH9	1 ± 0.044	1.01 ± 0.049	0.97 ± 0.037	0.951 ± 0.029	0.948 ± 0.036	0.921 ± 0.038
STT3B (UniProt Q8TCJ2)	0.973 ± 0.046	0.946 ± 0.028	0.959 ± 0.011	0.976 ± 0.049	1 ± 0.011	0.984 ± 0.023
UniProt Q8TDY2 and related entries	1.05 ± 0.054	1.08 ± 0.024	1.05 ± 0.025	1.01 ± 0.077	0.986 ± 0.021	1.02 ± 0.028
UniProt Q8WYN0 and related entries	1 ± 0.013	1 ± 0.0077	0.993 ± 0.0083	0.9887 ± 0.0043	0.984 ± 0.026	0.9922 ± 0.0012
DTX3L (UniProt Q8TDB6)	1.03 ± 0.02	1.01 ± 0.024	1.04 ± 0.059	0.994 ± 0.03	0.996 ± 0.038	0.993 ± 0.022
TDRD7 (UniProt Q8NHU6)	1.008 ± 0.0095	1.01 ± 0.022	0.995 ± 0.014	0.9752 ± 0.0069	0.96444 ± 0.0008	0.994 ± 0.042
KBTBD8 (UniProt Q8NFY9)	0.953 ± 0.046	0.944 ± 0.043	0.955 ± 0.035	0.976 ± 0.018	0.973 ± 0.02	0.965 ± 0.025
UniProt Q8WY54 and related entries	1 ± 0.04	1.01 ± 0.014	1.03 ± 0.042	1.02 ± 0.059	1.01 ± 0.045	1.03 ± 0.056
ERCC4 (UniProt Q92889)	1.01 ± 0.016	1.01 ± 0.049	1.03 ± 0.014	0.9697 ± 0.0049	0.99 ± 0.013	0.975 ± 0.025
UBA3 (UniProt Q8TBC4)	0.984 ± 0.025	0.949 ± 0.057	1.01 ± 0.033	0.986 ± 0.027	1 ± 0.021	0.979 ± 0.028

3 entries drawn at random from those above, as already listed:
Target	NP40-soluble protein abundance (concentration: 1mM)	NP40-soluble protein abundance (concentration: 2mM)	NP40-soluble protein abundance (concentration: 4mM)	NP40-soluble protein abundance (concentration: 6mM)	NP40-soluble protein abundance (concentration: 8mM)	NP40-soluble protein abundance (concentration: 10mM)
KBTBD8 (UniProt Q8NFY9)	0.953 ± 0.046	0.944 ± 0.043	0.955 ± 0.035	0.976 ± 0.018	0.973 ± 0.02	0.965 ± 0.025
TDRD7 (UniProt Q8NHU6)	1.008 ± 0.0095	1.01 ± 0.022	0.995 ± 0.014	0.9752 ± 0.0069	0.96444 ± 0.0008	0.994 ± 0.042
UniProt Q8NFF5 and related entries	1.01 ± 0.011	0.997 ± 0.031	0.982 ± 0.013	0.9712 ± 0.0049	0.971 ± 0.017	0.959 ± 0.022

Additional records follow:

Target	NP40-soluble protein abundance (concentration: 1mM)	NP40-soluble protein abundance (concentration: 2mM)	NP40-soluble protein abundance (concentration: 4mM)	NP40-soluble protein abundance (concentration: 6mM)	NP40-soluble protein abundance (concentration: 8mM)	NP40-soluble protein abundance (concentration: 10mM)
SHCBP1 (UniProt Q8NEM2)	0.9981 ± 0.0054	1.003 ± 0.0021	1.02 ± 0.033	1.01 ± 0.025	0.987 ± 0.014	1.01 ± 0.023
CHMP7 (UniProt Q8WUX9)	0.993 ± 0.028	1.03 ± 0.053	0.9727 ± 0.0079	1 ± 0.011	0.9358 ± 0.0077	0.985 ± 0.029
UniProt Q8TAV0 and related entries	1.05 ± 0.0049	1.04 ± 0.018	1.06 ± 0.068	1.06 ± 0.055	1.06 ± 0.064	1.03 ± 0.019
UniProt Q8TDZ2 and related entries	0.991 ± 0.023	1 ± 0.012	0.995 ± 0.01	0.979 ± 0.022	0.973 ± 0.024	0.982 ± 0.017
BRI3BP (UniProt Q8WY22)	0.96 ± 0.04	0.955 ± 0.03	1.02 ± 0.034	1.13 ± 0.12	1.15 ± 0.1	1.12 ± 0.084
ZNF384 (UniProt Q8TF68)	1 ± 0.045	1.05 ± 0.051	1.031 ± 0.0019	1.02 ± 0.046	1.02 ± 0.043	1.05 ± 0.033
PDZD8 (UniProt Q8NEN9)	1.03 ± 0.067	1.14 ± 0.097	1.09 ± 0.12	1.02 ± 0.02	0.98 ± 0.028	0.993 ± 0.049
UniProt Q8NDV3-2|Q8NDV3-3	0.953 ± 0.039	0.942 ± 0.011	0.928 ± 0.015	0.977 ± 0.0022	0.945 ± 0.025	0.944 ± 0.033
UniProt Q92783 and related entries	1.042 ± 0.0058	1.02 ± 0.03	0.965 ± 0.04	0.99 ± 0.03	0.952 ± 0.024	0.979 ± 0.04
UniProt Q8NI22 and related entries	1.02 ± 0.035	1.02 ± 0.019	0.985 ± 0.034	0.998 ± 0.011	1.002 ± 0.01	0.986 ± 0.013
UniProt Q8WUY1	1 ± 0.011	0.993 ± 0.035	1 ± 0.018	0.994 ± 0.044	0.995 ± 0.052	0.959 ± 0.033
DNAJB14 (UniProt Q8TBM8)	0.975 ± 0.025	0.987 ± 0.066	0.971 ± 0.028	0.953 ± 0.039	0.952 ± 0.035	0.947 ± 0.035
PPP1R35 (UniProt Q8TAP8)	0.984 ± 0.022	0.966 ± 0.023	0.9877 ± 0.0089	1.005 ± 0.0022	0.983 ± 0.027	0.9861 ± 0.0011
UniProt Q92616	1.01 ± 0.023	0.968 ± 0.076	0.992 ± 0.046	0.964 ± 0.011	0.948 ± 0.036	0.935 ± 0.049
PPTC7 (UniProt Q8NI37)	1 ± 0.025	1.01 ± 0.034	1.02 ± 0.02	1.01 ± 0.015	1.01 ± 0.019	1.01 ± 0.019
UniProt Q8TDD1 and related entries	1.035 ± 0.0098	1.05 ± 0.021	1.09 ± 0.041	1.15 ± 0.04	1.16 ± 0.059	1.25 ± 0.053
PRCC (UniProt Q92733)	0.97 ± 0.012	1.09 ± 0.079	0.975 ± 0.029	1.01 ± 0.027	0.932 ± 0.021	1.02 ± 0.049
FIG4 (UniProt Q92562)	1 ± 0.022	1.04 ± 0.024	1.06 ± 0.04	1.02 ± 0.024	0.9942 ± 0.0076	0.9926 ± 0.0034
PHIP (UniProt Q8WWQ0)	1.03 ± 0.019	1.05 ± 0.016	1.05 ± 0.061	1.06 ± 0.075	1.04 ± 0.034	1.06 ± 0.077
PPP1R13L (UniProt Q8WUF5)	1.01 ± 0.017	0.9997 ± 0.0052	1 ± 0.025	1.01 ± 0.029	0.97 ± 0.04	0.992 ± 0.011
